This experiment deals with RAW 264.7. Kind of experiment: cell viability (MTT) relative to vehicle control; higher = more viable cells. The note with it: stimulus: HMGB1 5 ug/ml, 18 h.
Where [1] appears, read: compound concentration: 1 ug/ml.

Where a name gives a salt, the structure may show the parent alone. ± gives the standard deviation of the averaged measurements. The list shows a part of the results. Repeats are few or missing, and single values can be far off.

Regarding `Nc1nc2c(ncn2[C@@H]2O[C@H](CO)[C@@H](O)[C@@H]2O)c(=O)[nH]1` [Ara-G hydrate], the cell viability (as a rule, a read-out of living cells in per cent, often relative to untreated cells) (compound concentration: 3 uM) was 111%.

`Cc1nnc(SCC2=C(C(=O)O)N3C(=O)[C@@H](NC(=O)Cn4cnnn4)[C@H]3SC2)s1` [Cefazolin sodium salt]: the cell viability (compound concentration: 3 uM) turned out to be 130%. For `Cc1nnc(SCC2=C(C(=O)O)N3C(=O)[C@@H](NC(=O)Cn4cnnn4)[C@H]3SC2)s1` [Cefazolin sodium], where the note is “compound concentration: 3 uM”, the cell viability amounted to 105%. For `Cc1nnc(SCC2=C(C(=O)O)N3C(=O)[C@@H](NC(=O)Cn4cnnn4)[C@H]3SC2)s1`, the cell viability (compound concentration: 3 uM) stood at 106%. `CC1(C)S[C@@H]2[C@H](NC(=O)COc3ccccc3)C(=O)N2[C@H]1C(=O)O`: where the note is “compound concentration: 3 uM”, the cell viability amounted to 109%. For `CCCC(=O)O[C@]1(C(=O)CO)CC[C@H]2[C@@H]3CCC4=CC(=O)CC[C@]4(C)[C@H]3[C@@H](O)C[C@@]21C` [Hydrocortisone 17-butyrate], the cell viability under setting [1] stood at 113%.

`CCCC(=O)O[C@]1(C(=O)CO)CC[C@H]2[C@@H]3CCC4=CC(=O)CC[C@]4(C)[C@H]3[C@@H](O)C[C@@]21C`: the cell viability (compound concentration: 3 uM) stood at 111%. Take `C[S+](CC[C@H](N)C(=O)I)C[C@H]1O[C@@H](n2cnc3c(N)ncnc32)[C@H](O)[C@@H]1O` (stereo partly drawn) [S-(5'-Adenosyl)-L-methionine iodide]: the cell viability under setting [1] was 92.7%.

As to `CCCCC1(C2CCCC2)Cc2cc(OCC(=O)O)c(Cl)c(Cl)c2C1=O` (stereo in doubt) [R(+)-Butylindazone], the cell viability (compound concentration: 3 uM) was found to be 95.6%. Turning to `COc1ccc2c3c1O[C@H]1C[C@@H](O)C=C[C@@]31CCN(C)C2`, the cell viability (compound concentration: 3 uM) amounted to 102%. `COc1ccc2c3c1O[C@H]1C[C@@H](O)C=C[C@@]31CCN(C)C2` [(-)Galanthamine]: the cell viability under setting [1] is 85.2%. Turning to `COc1ccc2c3c1O[C@H]1C[C@@H](O)C=C[C@@]31CCN(C)C2` [Galanthamine], the cell viability (compound concentration: 3 uM) turned out to be 90.9 ± 6.1%. With `COc1ccc2c3c1O[C@H]1C[C@@H](O)C=C[C@@]31CCN(C)C2` [Galanthamine hydrobromide], the cell viability (compound concentration: 3 uM) stood at 109%. With `COc1cc2c(cc1OC)[C@@H]1C(=O)c3ccc4c(c3O[C@@H]1CO2)C=CC(C)(C)O4`, the cell viability (compound concentration: 3 uM) is 82.4%. With `S=c1[nH]cnc2nc[nH]c12` [Mercaptopurine], the cell viability (compound concentration: 3 uM) came to 112%. On to `S=c1[nH]cnc2nc[nH]c12`, for which the cell viability (compound concentration: 3 uM) worked out at 95.3 ± 1.5%. `Cc1cc2nc3c(=O)[nH]c(=O)nc-3n(C[C@H](O)[C@H](O)[C@H](O)COP(=O)(O)OP(=O)(O)OC[C@H]3O[C@@H](n4cnc5c(N)ncnc54)[C@H](O)[C@@H]3O)c2cc1C` [Flavin adenine dinucleotide disodium salt]: under setting [1], the cell viability stood at 107%.

As for `C[C@H]1O[C@@H](O[C@H]2[C@@H](O)C[C@H](O[C@H]3[C@@H](O)C[C@H](O[C@H]4CC[C@@]5(C)[C@H](CC[C@@H]6[C@@H]5CC[C@]5(C)[C@@H](C7=CC(=O)OC7)CC[C@]65O)C4)O[C@@H]3C)O[C@@H]2C)C[C@H](O)[C@@H]1O` [Digitoxin], under setting [1], the cell viability was 103%.

Take `C[C@H]1O[C@@H](O[C@H]2[C@@H](O)C[C@H](O[C@H]3[C@@H](O)C[C@H](O[C@H]4CC[C@@]5(C)[C@H](CC[C@@H]6[C@@H]5CC[C@]5(C)[C@@H](C7=CC(=O)OC7)CC[C@]65O)C4)O[C@@H]3C)O[C@@H]2C)C[C@H](O)[C@@H]1O`: the cell viability (compound concentration: 3 uM) amounted to 100%. With `CCCCCCCCNC(C)C(O)c1ccc(SC(C)C)cc1` (stereo not drawn), for the setting “compound concentration: 3 uM”, the cell viability amounted to 88.4%. Same read-out and setting: then `CCCCCCCCNC(C)C(O)c1ccc(SC(C)C)cc1` (stereo not drawn) [Suloctidil], with 131%; and `CN(Cc1ccc(C(C)(C)C)cc1)Cc1cccc2ccccc12` [Butenafine], with 119 ± 4%. Regarding `NCCCCN` [Putrescine dihydrochloride], the cell viability (compound concentration: 3 uM) was determined as 109%. As for `C1CCN2CC3CC(CN4CCCC[C@H]34)C2C1` (stereo partly drawn), the cell viability under setting [1] came out at 94.2%.

On to `O=C(CCCN1CCC(O)(c2ccc(Cl)cc2)CC1)c1ccc(F)cc1` [Haloperidol], for which the cell viability (compound concentration: 3 uM) came to 92.7 ± 3.5%. With `O=C(CCCN1CCC(O)(c2ccc(Cl)cc2)CC1)c1ccc(F)cc1`, where the note is “compound concentration: 3 uM”, the cell viability came to 89.9%. Still for that read-out and setting: then `O=c1[nH]c2cc(Cl)ccc2c(O)c1-c1cccc(Oc2ccccc2)c1`, with 97.5%. On to `Cc1ccc(C)c(OCCCC(C)(C)C(=O)O)c1`, for which, for the setting “compound concentration: 3 uM”, the cell viability was 106%. On to `Cc1ccc(C)c(OCCCC(C)(C)C(=O)O)c1` [Gemfibrozil], for which the cell viability (compound concentration: 3 uM) came to 95.2 ± 6.8%. On the same count and under the same terms, then `O=C(O)C[C@H](O)C[C@H](O)/C=C/c1c(C2CC2)nc2ccccc2c1-c1ccc(F)cc1`, with 105%. As to `Cc1cc2c(OCC(CNC(C)(C)C)OC(=O)c3ccccc3)cccc2[nH]1` (stereo not drawn) [Bopindolol], the cell viability (compound concentration: 3 uM) came to 91.6%. Consider `COc1ccc(CN(CCN(C)C)c2ncccn2)cc1`, for which the cell viability (compound concentration: 3 uM) came to 101%. In the case of `N=C(N)SCCc1ccc(CCSC(=N)N)cc1` [1,4-PBIT dihydrobromide], the cell viability (compound concentration: 3 uM) came out at 108%. As for `NCC(=O)CCC(=O)O`, the cell viability (compound concentration: 3 uM) was found to be 109%. For `CNCCC=C1c2ccccc2C=Cc2ccccc21` [Norcyclobenzaprine], the cell viability (compound concentration: 3 uM) came out at 89.8%. Same read-out and setting: then `NC(=O)c1ccc[n+]([C@@H]2O[C@H](COP(=O)([O-])OP(=O)(O)OC[C@H]3O[C@@H](n4cnc5c(N)ncnc54)[C@H](O)[C@@H]3O)[C@@H](O)[C@H]2O)c1`, with 104%; and `NC(=O)c1ccc[n+]([C@@H]2O[C@H](COP(=O)([O-])OP(=O)(O)OC[C@H]3O[C@@H](n4cnc5c(N)ncnc54)[C@H](O)[C@@H]3O)[C@@H](O)[C@H]2O)c1` [Nadide], with 134%. On to `COc1c(C)c2c(c(O)c1C/C=C(\C)CCC(=O)OCCN1CCOCC1)C(=O)OC2` [Mycophenolate mofetil], for which, for the setting “compound concentration: 3 uM”, the cell viability turned out to be 44.6%.

With `CN1C(C(=O)Nc2ccccn2)=C(O)c2ccccc2S1(=O)=O`, under “compound concentration: 3 uM”, the cell viability came to 100%. In the case of `CN1C(C(=O)Nc2ccccn2)=C(O)c2ccccc2S1(=O)=O` [Piroxicam], the cell viability (compound concentration: 3 uM) was found to be 99.6 ± 7.8%.

Turning to `NCCS`, the cell viability (compound concentration: 3 uM) is 109%. Turning to `NCCS` [Cysteamine hydrochloride], the cell viability (compound concentration: 3 uM) was found to be 110%. Same read-out and setting: then `COCCOC(=O)C1=C(C)NC(C)=C(C(=O)OC(C)C)C1c1cccc([N+](=O)[O-])c1` (stereo not drawn), with 97.7 ± 4.4%; and `COCCOC(=O)C1=C(C)NC(C)=C(C(=O)OC(C)C)C1c1cccc([N+](=O)[O-])c1` (stereo not drawn) [Nimodipine], with 103 ± 9.9%.

Turning to `COC(=O)CCc1ccc(OCC(O)CNC(C)C)cc1` (stereo not drawn), the cell viability (compound concentration: 3 uM) worked out at 102%. In the case of `COC(=O)CCc1ccc(OCC(O)CNC(C)C)cc1` (stereo not drawn) [Esmolol hydrochloride], under “compound concentration: 3 uM”, the cell viability turned out to be 95.3%.

With `COC(=O)CCc1ccc(OCC(O)CNC(C)C)cc1` (stereo not drawn) [Esmolol], the cell viability (compound concentration: 3 uM) came out at 99%. As to `CC(N)(Cc1ccc(O)cc1)C(=O)O` (racemic) [DL-alpha-Methyl-p-tyrosine], for the setting “compound concentration: 3 uM”, the cell viability came to 112%.

(Values after the supplement of paper PMC3682954.)
